The results in this text go back to publication PMC12774626.

Chains of the proteins cited; added tags and fusions are not shown.
UniProt Q13263: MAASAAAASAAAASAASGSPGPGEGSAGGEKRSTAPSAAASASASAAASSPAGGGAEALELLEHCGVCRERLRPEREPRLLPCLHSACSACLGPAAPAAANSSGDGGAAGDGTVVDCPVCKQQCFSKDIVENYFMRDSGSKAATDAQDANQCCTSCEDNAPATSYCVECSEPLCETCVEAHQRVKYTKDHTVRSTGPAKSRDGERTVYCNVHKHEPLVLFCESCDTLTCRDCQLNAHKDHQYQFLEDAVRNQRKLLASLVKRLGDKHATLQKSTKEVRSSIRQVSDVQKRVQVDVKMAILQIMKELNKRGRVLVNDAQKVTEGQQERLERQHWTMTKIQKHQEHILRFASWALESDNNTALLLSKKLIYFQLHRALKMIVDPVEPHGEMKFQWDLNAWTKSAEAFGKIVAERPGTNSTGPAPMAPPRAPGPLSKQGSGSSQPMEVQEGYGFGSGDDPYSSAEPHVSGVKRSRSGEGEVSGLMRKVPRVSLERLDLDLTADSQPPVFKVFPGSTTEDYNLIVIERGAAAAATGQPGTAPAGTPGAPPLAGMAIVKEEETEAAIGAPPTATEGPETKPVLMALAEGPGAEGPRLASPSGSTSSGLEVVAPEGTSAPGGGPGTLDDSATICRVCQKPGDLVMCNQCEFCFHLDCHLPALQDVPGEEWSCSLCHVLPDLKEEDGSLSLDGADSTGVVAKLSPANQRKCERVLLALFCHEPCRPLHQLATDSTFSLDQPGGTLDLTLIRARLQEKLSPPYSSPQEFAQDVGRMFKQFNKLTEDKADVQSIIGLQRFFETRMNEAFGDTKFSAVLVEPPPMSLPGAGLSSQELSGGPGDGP
UniProt P13383: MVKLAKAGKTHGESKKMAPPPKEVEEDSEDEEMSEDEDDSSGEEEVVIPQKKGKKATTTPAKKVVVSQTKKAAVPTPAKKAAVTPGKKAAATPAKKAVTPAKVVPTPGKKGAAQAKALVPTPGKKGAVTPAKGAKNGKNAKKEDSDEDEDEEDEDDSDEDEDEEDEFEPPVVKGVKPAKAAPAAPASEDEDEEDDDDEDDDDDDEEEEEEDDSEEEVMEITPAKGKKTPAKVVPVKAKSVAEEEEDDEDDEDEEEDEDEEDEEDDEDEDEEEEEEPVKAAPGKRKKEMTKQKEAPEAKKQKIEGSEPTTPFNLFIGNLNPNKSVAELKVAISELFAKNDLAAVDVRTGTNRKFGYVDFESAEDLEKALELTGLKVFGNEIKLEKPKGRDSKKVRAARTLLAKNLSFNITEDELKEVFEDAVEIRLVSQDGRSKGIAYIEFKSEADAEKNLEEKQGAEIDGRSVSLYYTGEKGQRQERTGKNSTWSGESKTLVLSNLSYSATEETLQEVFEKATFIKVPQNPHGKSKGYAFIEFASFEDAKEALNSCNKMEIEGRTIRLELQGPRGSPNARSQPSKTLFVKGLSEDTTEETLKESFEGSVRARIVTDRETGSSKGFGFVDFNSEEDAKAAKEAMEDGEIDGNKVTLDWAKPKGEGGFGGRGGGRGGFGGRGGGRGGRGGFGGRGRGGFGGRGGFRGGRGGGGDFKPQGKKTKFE

These are yes or no findings as the source states them, for the method shown. Binding seen in cells or lysates may run through a third protein. Some entries that bind do so weakly or less than the wild type.

This experiment has as its target KAP1, overexpressed in PC12 cells (UniProt Q13263). The experiment can be described thus: co-IP; PC12 cells overexpressing KAP1 and YTHDC1, with and without FAM20C knockdown; KAP1 as reference.

Take “NCL, endogenous in PC12 cells (from UniProt P13383 1-713)”: the binding entry was “binds”.
